{"source": "PubChem BioAssay AID493014", "about": "(National Center for Advancing Translational Sciences (NCATS), 2011)", "note": "In all, about 340,000 compounds went through this assay and about 170 (0.05%) were called active. This list was built around the results that the source calls inconclusive (neither active nor inactive); the mix of calls is not that of the screen. Calls come from the whole dose curve; as a rule, active = well fitted inhibition curve with a large enough effect in the signal ratio, with a control signal flat (not every such curve was filed as active); inconclusive = small, poorly fitted or top-dose-only effect, or effect the other way, or a change in a side signal; inactive = flat fitted curve, though single readings scatter; the % refers to the signal ratio. Potencies of inconclusive entries are doubtful fits and often do not repeat. Potency is the fitted concentration of half-maximal effect."}
{"assay": "qHTS Assay to Find Inhibitors of Chronic Active B-Cell Receptor Signaling;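 for activity change, negative = inhibition: plate controls were basal doxycycline-induced cells for no effect and cells given 10 µM MG132 for full effect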", "settings": "ABC-DLBCL IkBa-CBG/CBR reporter, luminescence ratio (green luciferase fused to IkBa over red control in TMD8 lymphoma cells), 4 h; activity change, negative = inhibition: at 46.1 µM (top of the series) unless noted", "outline": "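TMD8 ABC-DLBCL cells carrying doxycycline-inducible green luciferase fused to IkappaBalpha plus unfused red luciferase were exposed to compounds (up to 46 uM) for 4 hrs at 37C. Activity came from the overlap-corrected green/red luminescence ratio.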"}
{"smiles": "COc1ccc(C2C(=O)c3ccccc3C2=O)cc1OC", "activity change, negative = inhibition": "inconclusive: 8.43%"}
{"smiles": "COc1nc(N/N=C/c2ccc(-c3ccccc3[N+](=O)[O-])o2)nc(N2CCOCC2)n1", "activity change, negative = inhibition": "inconclusive: -12.6%"}
{"smiles": "COc1ccc2c(c1OC)C(=O)N(c1ccccn1)C2", "activity change, negative = inhibition": "inconclusive: -11.4%"}
{"smiles": "CC1CCCCN1CCNC(=O)C1CCN(S(=O)(=O)c2cccc3nsnc23)CC1", "note": "(stereo not given)", "activity change, negative = inhibition": "inactive"}
{"smiles": "O=C(NC12CC3CC(CC(C3)C1)C2)c1cc([N+](=O)[O-])ccc1N1CCOCC1", "activity change, negative = inhibition": "inconclusive: 23.8%"}
{"smiles": "Cc1ccc(NC(=O)Nc2nnc(CSCCOc3ccc(Cl)cc3)s2)cc1", "activity change, negative = inhibition": "inactive"}
{"smiles": "CCOC(=O)Cc1nn(C)c(=O)c2ccccc12", "Potency": "inconclusive: 29.1 µM [falling, single point]"}
{"smiles": "COc1ccc(-c2ccc(C#N)c(SCC(=O)NCc3ccco3)n2)cc1OC", "activity change, negative = inhibition": "inconclusive: -9.25%"}
{"smiles": "COc1ccccc1-c1cc(C(=O)NC(C)C)no1", "Potency": "inconclusive: 3.98 µM [rising, partial curve, poor fit]"}
{"smiles": "C/C(CC(=O)Nc1ccccc1[N+](=O)[O-])=N\\NC(=O)COc1ccccc1C", "Potency": "inconclusive: 1.3 µM [falling, partial curve, poor fit]"}
{"smiles": "O=C(NC1CC1)c1sc2ccccc2c1Cl", "activity change, negative = inhibition": "inactive"}
{"smiles": "COc1ccc(CCC(C)N2CCC(CO)(Cc3ccccc3)CC2)cc1", "note": "(stereo not given)", "activity change, negative = inhibition": "inconclusive: 2.99%"}
{"smiles": "O=C(NC(=S)Nc1ccc(N2CCCC2)cc1)c1ccccc1[N+](=O)[O-]", "activity change, negative = inhibition": "inactive"}
{"smiles": "Cc1noc(C)c1C(=O)Nc1nc2ccc(Cl)cc2s1", "Potency": "inconclusive: 25.1 µM [falling, partial curve]"}
{"smiles": "CCC(C)NC(=O)/C=C1\\Sc2ccccc2NC1=O", "note": "(stereo not given)", "Potency": "inconclusive: 29.1 µM [falling, single point]"}
{"smiles": "Cc1ccc(NS(=O)(=O)c2ccc(C3CCCCC3)cc2)cc1", "activity change, negative = inhibition": "inconclusive: 16.4%"}
{"smiles": "CCn1cc(C(=O)OCc2ccccc2)c(=O)c2ccc(C)nc21", "activity change, negative = inhibition": "inconclusive: 19.1%"}
{"smiles": "COCCCNC(=O)CC(NS(=O)(=O)c1ccc(OC)cc1)c1ccc(OC)cc1", "note": "(stereo not given)", "activity change, negative = inhibition": "inconclusive: 3.86%"}
{"smiles": "Cc1sc2ncnc(Sc3nnc4sc5ccccc5n34)c2c1C", "activity change, negative = inhibition": "inconclusive: -9.74%"}
{"smiles": "S=C(Nc1ccc2c(c1)OCO2)NC1CCN(Cc2ccccc2)CC1", "activity change, negative = inhibition": "inconclusive: 14.2%"}
{"smiles": "Cc1ccc(C)c(NC(=O)CN2C(=O)CNC2=O)c1", "activity change, negative = inhibition": "inconclusive: 0.812%"}
{"smiles": "O=C(OCCN1C(=O)c2ccccc2C1=O)c1cc(S(=O)(=O)N2CCOCC2)ccc1Cl", "activity change, negative = inhibition": "inactive"}
{"smiles": "Cc1c(C(=O)Nc2ccc3c(c2)OCCO3)sc2ncnc(N3CCCCC3C)c12", "note": "(stereo not given)", "activity change, negative = inhibition": "inconclusive: -19.3%"}
{"smiles": "Cc1cc(-c2nnc(SCC(=O)NC3CC3)n2C(C)C)cs1", "activity change, negative = inhibition": "inactive"}
{"smiles": "COc1cccc(OC)c1C(=O)OCC(=O)/C(C#N)=C(\\C)N", "activity change, negative = inhibition": "inconclusive: 17.1%"}
{"smiles": "N#CC(NC(=O)OCc1ccccc1)c1ccccc1", "note": "(stereo not given)", "activity change, negative = inhibition": "inactive"}
{"smiles": "COc1ccc(C(=O)NC(=S)NNC(=O)c2cnccn2)cc1", "activity change, negative = inhibition": "inactive"}
{"smiles": "O=C1OC(c2ccccc2)/C(=C(/O)c2ccc(Cl)cc2)C1=O", "note": "(stereo not given)", "activity change, negative = inhibition": "inconclusive: 11%"}
{"smiles": "NC(=O)c1ccc(N2CCN(c3ccccc3O)CC2)c([N+](=O)[O-])c1", "activity change, negative = inhibition": "inactive"}
{"smiles": "COc1cccc(N2CCN(C(=O)c3[nH]c(C)c(C(C)=O)c3C)CC2)c1", "Potency": "inconclusive: 35.5 µM [falling, partial curve, poor fit]"}
{"smiles": "O=C(COc1ccc(Br)cc1Br)NC(=S)N1CCCc2ccccc21", "activity change, negative = inhibition": "inconclusive: 17.8%"}
{"smiles": "CCCC(=O)Nc1ccc(S(=O)(=O)N2CCC(c3nc4ccccc4[nH]3)CC2)cc1", "activity change, negative = inhibition": "inconclusive: 4.19%"}
{"smiles": "O=[N+]([O-])c1cc(Cl)c(O)c2ncccc12", "Potency": "inconclusive: 11.2 µM [falling, single point]"}
{"smiles": "CC(C)c1ccc(S(=O)(=O)c2nnn3c2nc(N2CCCCC2)c2ccccc23)cc1", "activity change, negative = inhibition": "inactive"}
{"smiles": "CC(C)(C)C(=O)Nc1ccccc1C(=O)Nc1cc(Cl)ccc1Cl", "activity change, negative = inhibition": "inconclusive: 24.2%"}
{"smiles": "Cn1cccc1Cc1nnc(SCC(=O)Nc2ccc(Cl)cc2)n1-c1ccc(F)cc1", "activity change, negative = inhibition": "inconclusive: 2.97%"}
{"smiles": "O=C(CN1CCC(C(=O)c2ccc3c(c2)OCCO3)CC1)Nc1ccccc1C(F)(F)F", "activity change, negative = inhibition": "inconclusive: 2.05%"}
{"smiles": "CCCCN(CC)c1nc(-c2ccncc2)nc2ccccc12", "Potency": "inconclusive: 13 µM [rising, partial curve, poor fit]"}
{"smiles": "Clc1ccc(SCc2csc(N3CCOCC3)n2)cc1", "activity change, negative = inhibition": "inconclusive: 0.0435%"}
{"smiles": "COc1ccnc(Oc2ccc(F)cc2)c1C(=O)N/C=N/OCc1c(Cl)cccc1Cl", "activity change, negative = inhibition": "inconclusive: -5.9%"}
{"smiles": "C/C(=N\\N=c1/sc2ccccc2n1C)c1ccccn1", "activity change, negative = inhibition": "inconclusive: 6.9%"}
{"smiles": "CCOC(=O)C1=CN(Cc2ccco2)S(=O)(=O)N(C)C1c1ccc2ccccc2c1", "note": "(stereo not given)", "activity change, negative = inhibition": "inconclusive: 1.39%"}
{"smiles": "CCO[C@H]1OC(C(=O)N2CCCCCCC2)=C[C@@H](C2CCCCC2)[C@@H]1CCCO", "activity change, negative = inhibition": "inactive"}
{"smiles": "Cc1c(Cl)cccc1NC(=O)C1CCCCC1", "Potency": "inconclusive: 35.5 µM [rising, partial curve, poor fit]"}
{"smiles": "O=C(COc1cccc2cccnc12)N/N=C/c1cccn1-c1ccc(F)cc1", "activity change, negative = inhibition": "inconclusive: 4.11%"}
{"smiles": "O=C(c1ccccc1F)N1CCc2ccccc21", "activity change, negative = inhibition": "inactive"}
{"smiles": "Cn1c2c(c(=O)n(C)c1=O)C1(C(=O)Nc3ccccc31)C(C#N)=C(N)O2", "note": "(stereo not given)", "Potency": "inconclusive: 1.12 µM [falling, full curve]"}
{"smiles": "CCc1nc2cc(Cl)c(Cl)cc2[nH]1", "activity change, negative = inhibition": "inconclusive: 8.6%"}
{"smiles": "O=C(Nc1ccc(Cl)cc1)c1ccc2c(c1)OCO2", "activity change, negative = inhibition": "inconclusive: -20.8%"}
{"smiles": "Cc1cccc(NC(=O)CN2CCc3cc4c(cc3C2C)OCCCO4)c1", "note": "(stereo not given)", "activity change, negative = inhibition": "inconclusive: -22.9%"}
{"smiles": "CCN1CCc2c(OCC(=O)Nc3cccc(C)c3)cccc2C1=O", "activity change, negative = inhibition": "inconclusive: -18.9%"}
{"smiles": "COc1ccc(C(=O)Nc2ccc(NC(=O)c3cccs3)cc2)cc1Cl", "activity change, negative = inhibition": "inactive"}
{"smiles": "COCCNC(=O)CSc1nc2cc(OC)c(OC)cc2c(=O)n1CCC1=CCCCC1", "activity change, negative = inhibition": "inconclusive: 16.5%"}
{"smiles": "O=C(c1ccc2c(=O)n(Cc3ccco3)c(=S)[nH]c2c1)N1CCN(c2ccccc2)CC1", "activity change, negative = inhibition": "inactive"}
{"smiles": "CCN(CC)CCN(C(=O)c1ccccc1OC)c1nc2ccc(F)cc2s1", "activity change, negative = inhibition": "inconclusive: -0.808%"}
{"smiles": "Cc1ccccc1Cn1c(Oc2ccccc2F)nc2c1c(=O)n(C)c(=O)n2C", "activity change, negative = inhibition": "inactive"}
{"smiles": "CSc1nnnn1-c1c(C)cc(C)cc1C", "activity change, negative = inhibition": "inconclusive: 2.69%"}
{"smiles": "COc1ccc(S(=O)(=O)N2CCCCC2)cc1NC(=O)c1cncc(Br)c1", "activity change, negative = inhibition": "inactive"}
{"smiles": "O=C1S/C(=C\\c2ccc(O)c([N+](=O)[O-])c2)C(=O)N1c1ccccc1Cl", "activity change, negative = inhibition": "inconclusive: 0.645%"}
{"smiles": "CSc1nc(N(C)NC(=O)c2ccccc2)c2ccccc2n1", "activity change, negative = inhibition": "inconclusive: -17.6%"}
{"smiles": "Cc1nc(Cl)sc1C(=O)Nc1cccc(Cl)c1C", "activity change, negative = inhibition": "inconclusive: -1.77%"}
{"smiles": "COc1ccc(N2C(=O)CC(Sc3nc(C)cc(C)c3C#N)C2=O)cc1", "note": "(stereo not given)", "activity change, negative = inhibition": "inactive"}
{"smiles": "O=C(Nc1nc2cc3c(cc2s1)OCO3)C1=COCCO1", "Potency": "inconclusive: 14.6 µM [falling, partial curve]"}
{"smiles": "COc1ccc(C(=O)N/N=C/c2ccc(N3CCOCC3)s2)cc1OC", "activity change, negative = inhibition": "inactive"}
{"smiles": "CC(=O)OCC(=O)[C@@]1(O)CC[C@H]2[C@@H]3CCC4=CC(=O)C=C[C@]4(C)[C@H]3[C@@H](O)C[C@@]21C", "Potency": "inconclusive: 0.01 µM [falling, full curve, poor fit]"}
{"smiles": "Cc1cc2nc(-c3ccc(SCc4ccc(C#N)cc4)nc3)[nH]c2cc1C", "activity change, negative = inhibition": "inconclusive: 17.5%"}
{"smiles": "O=S(=O)(NCCOCC(F)(F)C(F)F)c1ccc2oc3ccccc3c2c1", "activity change, negative = inhibition": "inactive"}
{"smiles": "Cc1cccc(NC(=S)NCc2ccccc2)c1C", "activity change, negative = inhibition": "inactive"}
{"smiles": "O=C(Nc1ccc(Cl)c([N+](=O)[O-])c1)C(Sc1ccccc1)c1ccccc1", "note": "(stereo not given)", "Potency": "inconclusive: 6.51 µM [rising, full curve, poor fit]"}
{"smiles": "COc1cc(CCC(=O)NCc2ccc3c(c2)CCN3C(=O)c2cccc(C)c2)cc(OC)c1OC", "activity change, negative = inhibition": "inconclusive: -8.52%"}
{"smiles": "Cc1ccc(C(=O)NNC(=O)C(NC(=O)c2cccc(C)c2)C(C)C)cc1", "note": "(stereo not given)", "activity change, negative = inhibition": "inactive"}
{"smiles": "CCS(=O)(=O)N1CCCC(C(=O)NC2CCCC2)C1", "note": "(stereo not given)", "activity change, negative = inhibition": "inconclusive: 6.4%"}
{"smiles": "Cc1ccc(S(=O)(=O)N(CCC#N)C2CCCCC2)c2nsnc12", "activity change, negative = inhibition": "inconclusive: -1.76%"}
{"smiles": "CCOC(=O)c1c(C)[nH]c(C(C)=NNC(=O)c2cccs2)c1C", "activity change, negative = inhibition": "inconclusive: -21.1%"}
{"smiles": "CCC(CO)Oc1cc(NC(=O)c2ccccc2C)c2ncn(C(C)C)c2c1", "note": "(stereo not given)", "activity change, negative = inhibition": "inactive"}
{"smiles": "Cc1ccc2nc(-c3ccccc3)cc(C(=O)O)c2c1", "Potency": "inconclusive: 11.2 µM [falling, partial curve]"}
{"smiles": "Cc1cc(C)c2oc(-c3cccc(NC(=O)c4ccc(F)cc4)c3)nc2c1", "activity change, negative = inhibition": "inactive"}
{"smiles": "CCOC(=O)C1=C(c2ccccc2)N=c2s/c(=C\\c3cc(OC)c(OC)c(OC)c3)c(=O)n2C1c1cccs1", "note": "(stereo not given)", "activity change, negative = inhibition": "inconclusive: 0.577%"}
{"smiles": "CCc1cnc2c(c1SCC(=O)NCc1ccccc1)c(=O)n(C)c(=O)n2C", "activity change, negative = inhibition": "inconclusive: 12.7%"}
{"smiles": "COC(=O)c1sccc1NC(=O)Nc1cc(C)ccc1OC", "activity change, negative = inhibition": "inconclusive: 4.03%"}
{"smiles": "CCCn1c(CCl)nc2cc(S(=O)(=O)N3CCOCC3)ccc21", "activity change, negative = inhibition": "inactive"}
{"smiles": "Cc1ccc(-c2csc(NC3OC(=O)c4ccccc43)n2)cc1", "note": "(stereo not given)", "Potency": "inconclusive: 10 µM [falling, partial curve]"}
{"smiles": "CN1C(C(=O)NCc2cccc(Br)c2)CC2Cn3c(nc4cc5ccccc5cc43)C21", "note": "(stereo not given)", "activity change, negative = inhibition": "inactive"}
{"smiles": "Cc1ccc(O)c(C(=O)c2cc(C#N)c3nc4ccccc4n3c2)c1", "Potency": "inconclusive: 0.501 µM [rising, full curve, poor fit]"}
{"smiles": "O=C1CC(Nc2ccc(N3CCOCC3)cc2)C(=O)N1CCc1ccccc1", "note": "(stereo not given)", "Potency": "inconclusive: 2.59 µM [rising, full curve, poor fit]"}
